# Results are given in words; binding and its absence hold for the method and conditions named. Some results given as binding are weak or reduced against the parent protein; the word gives no strength. Sequences can lack the tags named with a protein.
# T1: Human PTK7 Protein, His Tag, Acro Biosystems (human) (UniProt Q13308)
# T1 sequence: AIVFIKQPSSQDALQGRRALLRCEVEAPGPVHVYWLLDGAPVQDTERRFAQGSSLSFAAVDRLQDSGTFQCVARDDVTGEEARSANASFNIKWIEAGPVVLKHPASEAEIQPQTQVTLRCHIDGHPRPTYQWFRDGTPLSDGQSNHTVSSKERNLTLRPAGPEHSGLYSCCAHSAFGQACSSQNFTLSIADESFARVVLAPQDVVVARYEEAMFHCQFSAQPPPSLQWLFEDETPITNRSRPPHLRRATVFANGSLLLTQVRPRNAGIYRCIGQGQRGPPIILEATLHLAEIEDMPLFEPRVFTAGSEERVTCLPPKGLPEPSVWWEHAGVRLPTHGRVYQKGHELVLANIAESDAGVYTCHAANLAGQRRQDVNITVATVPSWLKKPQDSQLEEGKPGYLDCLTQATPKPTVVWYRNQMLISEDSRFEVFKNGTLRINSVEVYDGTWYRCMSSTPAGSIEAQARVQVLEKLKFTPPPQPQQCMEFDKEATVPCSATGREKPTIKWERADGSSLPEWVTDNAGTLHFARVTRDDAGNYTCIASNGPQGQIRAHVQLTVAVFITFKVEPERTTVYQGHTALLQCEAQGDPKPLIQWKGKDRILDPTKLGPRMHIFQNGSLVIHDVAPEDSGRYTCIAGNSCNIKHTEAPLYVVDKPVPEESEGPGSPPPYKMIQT
# B1: MYT10990 (antibody, V domains shown)
# VH: EVQLVESGGGLVQPGGSLRLSCTASGFSLSSYAMGWVRQAPGKGLEWVGFINAGGNTYYANWAKGRFTISRDTSKNTVYLQMNSLRAEDTAVYYCARRYSRASGWYDLWGQGTLVTVSS
# VL: EIVMTQSPSTLSASVGDRVIITCQASQSISSYLAWYQQKPGKAPKLLIYAASTLASGVPSRFSGSGSGAEFTLTISSLQPDDFATYYCQSYSYSSGIDYGDVFGQGTKLTVL
# B2: MYT11100 (antibody, V domains shown)
# VH: EVQLVESGGGLVQPGGSLRLSCTASGLSLSSYWMSWVRQAPGKGLEWVGVISAGGNTYYANWAKGRFTISRDTSKNTVYLQMNSLRAEDTAVYFCARGDDGYTNAAYVSNLWGQGTLVTVSS
# VL: EIVMTQSPSTLSASVGDRVIITCQASQSISSWLSWYQQKPGKAPKLLIYKASTLASGVPSRFSGSGSGAEFTLTISSLQPDDFATYYCQSYFDSTTIAFGQGTKLEIK
# B3: MYT11250 (antibody, V domains shown)
# VH: EVQLVESGGGLVQPGGSLRLSCTASGIDLSSYVMGWVRQAPGKGLEWVGYIYGGGGTYYATWARGRFTISRDTSKNTVYLQMNSLRAEDTAVYFCARAAADFYFNLWGQGTLVTVSS
# VL: EIVMTQSPSTLSASVGDRVIITCQASQSISSYLAWYQQKPGKAPKLLIYDISDLASGVPSRFSGSGSGAEFTLTISSLQPDDFATYYCQSYYWISNSGAAFGQGTKLEIK
# B4: MYT11335 (antibody, V domains shown)
# VH: EVQLVESGGGLVQPGGSLRLSCTASGIDLSRYSMGWVRQAPGKGLEWVGIISYGGSTYYASWAKGRFTISRDTSKNTVYLQMNSLRAEDTAVYFCARVGYPGYSGYGYAFDAFDPWGQGTLVTVSS
# VL: EIVMTQSPSTLSASVGDRVIITCQSSKSVYNDNWLSWYQQKPGKAPKLLIYGASTLASGVPSRFSGSGSGAEFTLTISSLQPDDFATYYCAGGYSSSSDNGFGQGTKLEIK
# B5: MYT11378 (antibody, V domains shown)
# VH: EVQLVESGGGLVQPGGSLRLSCTASGIDLSNYAVIWVRQAPGKGLEWVGIIYTYDTTYYANWAKGRFTISRDTSKNTVYLQMNSLRAEDTAVYYCARSFSDISDLIKLWGQGTLVTVSS
# VL: EIVMTQSPSTLSASVGDRVIITCQASQSLYNNKDLAWYQQKPGKAPKLLIYEASKLASGVPSRFSGSGSGAEFTLTISSLQPDDFATYYCLGEFSCGSGDCLAFGQGTKLTVL
# Columns and labels:
# [1] = biological target: T1, Human PTK7 Protein, His Tag, Acro Biosystems (human); experiment: BLI (Octet), antibody on anti-human Fc sensor, 50 nM PTK7; 2 = substantially similar binding
# [2] = biological target: T1, Human PTK7 Protein, His Tag, Acro Biosystems (human); experiment: BLI (Octet), antibody on anti-human Fc sensor, 50 nM PTK7; grade 1 = pH dependent binding relative to parent
# [3] = biological target: T1, Human PTK7 Protein, His Tag, Acro Biosystems (human); experiment: BLI (Octet), antibody on anti-human Fc sensor, 50 nM PTK7, dissociation at pH 7.4 or 5.4; 1 = pH dependent binding relative to parent
# [4] = biological target: T1, Human PTK7 Protein, His Tag, Acro Biosystems (human); experiment: BLI, anti-human Fc capture, 50 nM PTK7; 2 = substantially similar binding relative to parent
# [5] = biological target: T1, Human PTK7 Protein, His Tag, Acro Biosystems (human); experiment: BLI, antibody on anti-human Fc sensor, 50 nM PTK7 at pH 7.4, dissociation at pH 7.4 or 5.4; 1 = pH dependent binding relative to parent
binder,measurement,setting,value
B1,binding,[1],binds
B2,binding,[2],binds
B3,binding,[3],binds
B4,binding,[4],binds
B5,binding,[5],binds
